Among all 53,000 sequences or so, about 3,700 (7%) were called active.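 The calls were made as follows: active = gene knockdowns whose robust z-score for IL-1 alpha signal is at least 2 or at most -2, so actives lie on both sides; inactive = the rest.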 The list shows a part of the results.
Assay: Components of the Cytosolic LPS Sensing Pathway: Gene Identification via Genome-wide siRNA Screen;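 also: robust z of the log signal after scaling to non-targeting control siRNA wells of the plate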
Conditions: RAW264.7 macrophages, IL-1a HTRF, actives lie on both sides, screened at 100 nM (by protocol), cells primed 5 h with Pam3CSK4 first
In short: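 Supernatant IL-1a by HTRF from RAW264.7 cells primed with Pam3CSK4 (5 hours) and transfected with LipidA (24 hour) after 48h siRNA knockdown at 100 nM; cell viability checked with CellTiter-Glo.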

z-score, inactive:
GGCCGACAAGCGAUCAAAATT against Arhgap44 0.424
GGAUCUGAAAUGAACCAGCTT against Rpl38 1.91
CGGUGUUCGCUUUUCAGAATT against Thap3 0.364
UUGUUGCCAAGUAUCUGUCTT against Ugt1a10 -0.332
GCUUCAGGAGCUCUACUGUTT against Catsper3 -0.736
GGCCGGAGCAUCACAAUUUTT against Vamp1 1.68
GGGAUUUCCUUCAUCAUUATT against Gtf2i -0.151
GGAUAUAACUGCUAUGGUUTT against Rhebl1 -0.241
GCCAAGGAGAUCAUAAAAUTT against Klk14 -0.345
CCCAAGGAGUACAAUAAAATT against Fam122c 0.594
CCCUUCUGUCUGUCUGAAGTT against Olfr247 -0.42
GCCACUGUACCUUAUUGGUTT against Msrb1 0.331
GGUAAAGUCAAAAUCACCATT against Pibf1 0.924
GCUAUGUAUCCCACCAAAATT against Enpp3 -0.357
GGGUUCCUACGAAUUCUACTT against Bpi 0.734
GUUUUCUGAGGUGAACAGATT against Ankrd13c -0.444
CGCUACGUCCAGUAUCACCTT against Tmem192 -0.471
GCAUCUUAUUUAAUUCCCATT against Mrpl39 -1.91
GGCUUUUGAUGAGGUAAAATT against Plekho2 -1.12
CCGUGUGGAGGUACCCAUUTT against Zp3 1.09
GGCUAUGGAGAAGCAGAUUTT against Srcin1 -0.401
GCCACGGAGAUAGCAGUUUTT against Hmgcll1 1.09
GGGUUUGAUCAACAGAGCCTT against Id1 -0.64
GGUAACAAUCACCAUAUUCTT against 1700029F12Rik -1.94
GGAGUCUGUAUUCUCAACATT against Kif15 -1.66
GCCUCAUGUUGACAGUGUCTT against Alkbh7 1.38
CCUCCAGGUGUUGAUCUGUTT against Btbd11 -0.186
GGAGACUUGAAAACAAUUATT against Brd2 -0.398
CGCCAUGAAUGUGAUUGGATT against Myo1e -0.923
CCACCCUAAUCCAUUUUUGTT against Baz2b -0.885
GCUAUGUCAUGGUUGGAACTT against Bag6 0.597
UUGAGAGGCAAAGAGUGGUTT against Olfr1166 -0.186
GGGUGAGCCUUCCUGAAAATT against Pcdhgb4 -0.0878
CCUACAAGACUGUCUCUGGTT against Atp6v1b2 -1.18
GCACUAGCACACACGAUUUTT against Upp1 -0.012
GAUCUCAGCGGUUCUAUAGTT against Yipf4 -0.196
GGCUGUUUGGCUUGUUUAATT against Golga7 1.82
GGUAGGCUAAAUAAAGAAGTT against Cisd2 0.166
CCCGAAUUGACAACAUCGUTT against Olfr855 0.566
GGCACUGGAAAUAAAACCCTT against S100a14 -0.766
GGAAGACUACGAUCAAUGGTT against Pafah2 1.55
GGAAUGUUGACUUAAAGGATT against Crot 0.709
GGACAAGACCAGCAAAUACTT against Six6 -1.58
GGCUUUGUAUUUGUUUAUGTT against Gdap1 -0.296
CCCAAUACAUGAGCUUCUGTT against Ch25h -0.209
GCUUAUUCCCAUAAAUAGATT against Slc9b1 0.538
GCAGCAGGAUUUCUCCAUUTT against Mlx -1.35
GGUCAUCUCAGACCUCCUCTT against Pde6a -0.275
GGCUGCUCAAAAAGAACAUTT against Kif21b 0.645
GCUCUCAUUAGCAUUAUCGTT against Gria1 0.21
GGCUAUAAUGAACCAGCUGTT against Ubr3 -0.208
GCUUGAGGAAUUUACGGCGTT against Cetn3 -0.0998
CCCUAGUUUAUCUCCGGAUTT against Lhx1 1.15
GCUACAUUUCUACUCAAAGTT against Dkk2 0.324
GGGAACUCGACAAAGAAAUTT against Cfap61 0.579
GGCUCUGAACGUAUCCUACTT against Card10 -0.474
GGCUUUUCUAUGUUUGAGATT against Pde6d 0.107
CCACUGCUUAAUCCUAUGATT against Olfr741 -1.47
GGUGGCUAGUUUUAUUACUTT against Thtpa -0.296
CCUACUCUCUCGUAGACUCTT against Rragb -0.697
GGCCAGGAGAAGAAGAUACTT against Tet2 -0.261
GGGCUCCUGUCUAAAGGAATT against Cd200r2 -0.127
GGAGUCCUUGGGAUAAUAATT against Zfp300 -1.67
GGUAGAGUUGGCUUUAUGGTT against Rhoa 0.682
GGGUUAUAAGAAAAAGUACTT against Krt82 -1.14
GCUGAAUUCAUUCAUAGCCTT against Cyp2d26 -0.55

Fetched one by one from above (6):
z-score, inactive:
GGUAGGCUAAAUAAAGAAGTT against Cisd2 0.166
CCCAAGGAGUACAAUAAAATT against Fam122c 0.594
GCCUCAUGUUGACAGUGUCTT against Alkbh7 1.38
GCCACUGUACCUUAUUGGUTT against Msrb1 0.331
GGAUCUGAAAUGAACCAGCTT against Rpl38 1.91
UUGAGAGGCAAAGAGUGGUTT against Olfr1166 -0.186

Following part.

z-score, active:
UCUGACAUUGACUCUAGCCTT against Fbxw16 -2.5
GGUCCUGGACAAAGUGUUUTT against Tubgcp5 2.48

From PubChem BioAssay AID1508600 (Functional Genomics Laboratory (NCATS/FGL), 2020)
